# Data source: PubChem BioAssay AID1224829 (NIAID, 2016)
# Test: 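Secondary check of hits that alter LPS-induced p65 translocation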 (follow-up of hits)
# System: mouse RAW264.7 G9 macrophage reporter cells
# Reagent: single siRNA against mouse genes, 100 nM
# Duration: 2 days of siRNA knock-down, then 40 min of LPS before fixing
# Challenge: LPS (Salmonella minnesota R595) at 10 ng/ml
# Read-out: 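Imaging of GFP-p65 after 40 min of LPS; nuclear over perinuclear ring intensity ratio, scaled to plate median and non-targeting control wells, given as z-score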
# Scale: p65 translocation z-score and gene median z-score, per vendor: higher = more nuclear NF-kappaB p65 after LPS
# Active means: 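An siRNA is called active when the mean z-score of its two replicates is above 2 or below -2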
# Calls: active = changed p65 translocation (either direction); inactive = no clear change
# In all, the deposit lists about 3,800 reagents; this is a part drawn at random. 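Calls cover raised and lowered translocation; gene median uses one vendor's three siRNAs; qiagen siRNAs acted more weakly than ambion siRNAs.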 The numbers tell different reagents against one gene apart.
gene,reagent,siRNA vendor or control pool,"p65 translocation z-score, replicate mean","p65 translocation z-score, replicate 1","p65 translocation z-score, replicate 2","gene median z-score, per vendor",call
Zp3r,1,ambion single siRNA,1.06,1.39,0.743,-0.209,inactive
Zp3r,2,ambion single siRNA,-0.209,-0.223,-0.196,-0.209,inactive
Zp3r,3,ambion single siRNA,-3.7,-1.83,-5.56,-0.209,active
Zp3r,4,qiagen single siRNA,3.2,1.9,4.5,1.05,active
Zp3r,5,qiagen single siRNA,0.865,0.903,0.827,1.05,inactive
Zp3r,6,qiagen single siRNA,1.05,0.884,1.21,1.05,inactive
Neu1,1,ambion single siRNA,0.459,1.01,-0.0955,-0.411,inactive
Neu1,2,ambion single siRNA,-1.2,-2.04,-0.371,-0.411,inactive
Neu1,3,ambion single siRNA,-0.691,-0.451,-0.93,-0.411,inactive
Neu1,4,qiagen single siRNA,2.33,3.16,1.49,1.78,active
Neu1,5,qiagen single siRNA,1.4,-0.59,3.4,1.78,inactive
Neu1,6,qiagen single siRNA,0.912,-0.236,2.06,1.78,inactive
Fpr1,1,ambion single siRNA,-0.291,1.06,-1.64,-1.66,inactive
Fpr1,2,ambion single siRNA,-2.05,-1.67,-2.42,-1.66,active
Fpr1,3,ambion single siRNA,,,,-1.66,inactive
Fpr1,4,qiagen single siRNA,1.99,2.26,1.72,0.317,inactive
Fpr1,5,qiagen single siRNA,0.317,-0.187,0.821,0.317,inactive
Fpr1,6,qiagen single siRNA,-1.82,-2.38,-1.27,0.317,inactive
Ubqln2,1,ambion single siRNA,-3.1,-3.94,-2.27,-1.94,active
Ubqln2,2,ambion single siRNA,-1.39,-0.294,-2.5,-1.94,inactive
Ubqln2,3,ambion single siRNA,-1.55,-1.48,-1.61,-1.94,inactive
Ubqln2,4,qiagen single siRNA,1.29,1.25,1.33,-1.57,inactive
Ubqln2,5,qiagen single siRNA,-4.4,-4.4,,-1.57,active
Ubqln2,6,qiagen single siRNA,-4.38,-4.38,,-1.57,active
Fam89b,1,ambion single siRNA,4.09,6.51,1.67,-1.02,active
Fam89b,2,ambion single siRNA,-1.53,-1.34,-1.72,-1.02,inactive
Fam89b,3,ambion single siRNA,-1.02,-1.02,,-1.02,inactive
Fam89b,4,qiagen single siRNA,1.04,1.34,0.749,0.914,inactive
Fam89b,5,qiagen single siRNA,0.573,1.08,0.0673,0.914,inactive
Fam89b,6,qiagen single siRNA,1.24,0.185,2.3,0.914,inactive
Serpinc1,1,ambion single siRNA,2.18,2.9,1.45,1.21,active
Serpinc1,2,ambion single siRNA,1.47,1.97,0.966,1.21,inactive
Serpinc1,3,ambion single siRNA,-1.16,-2.11,-0.202,1.21,inactive
Serpinc1,4,qiagen single siRNA,3.31,1.11,5.52,1.12,active
Serpinc1,5,qiagen single siRNA,0.552,-0.0355,1.14,1.12,inactive
Serpinc1,6,qiagen single siRNA,1.15,0.118,2.18,1.12,inactive
Tnfsf14,1,ambion single siRNA,2.48,4.52,0.443,0.555,active
Tnfsf14,2,ambion single siRNA,0.793,0.919,0.668,0.555,inactive
Tnfsf14,3,ambion single siRNA,-3.2,-3.1,-3.29,0.555,active
Tnfsf14,4,qiagen single siRNA,-0.493,-1.55,0.569,-1.55,inactive
Tnfsf14,5,qiagen single siRNA,-1.85,-0.651,-3.06,-1.55,inactive
Tnfsf14,6,qiagen single siRNA,-3.37,-3.37,,-1.55,active
Akt1s1,1,ambion single siRNA,-0.0357,0.0251,-0.0965,-1.97,inactive
Akt1s1,2,ambion single siRNA,-3.78,-3.95,-3.6,-1.97,active
Akt1s1,3,ambion single siRNA,-1.97,-1.97,,-1.97,inactive
Akt1s1,4,qiagen single siRNA,-0.342,-0.36,-0.325,0.82,inactive
Akt1s1,5,qiagen single siRNA,2.81,2.77,2.84,0.82,active
Akt1s1,6,qiagen single siRNA,0.82,0.997,0.642,0.82,inactive
Brd4,1,ambion single siRNA,-1.83,-1.72,-1.95,-1.95,inactive
Brd4,2,ambion single siRNA,-1.55,-2.8,-0.306,-1.95,inactive
Brd4,3,ambion single siRNA,-4.57,-4.57,,-1.95,active
Brd4,4,qiagen single siRNA,-4.58,-3.69,-5.46,-4.88,active
Brd4,5,qiagen single siRNA,-4.38,-3.02,-5.75,-4.88,active
Brd4,6,qiagen single siRNA,-5.48,-4.3,-6.65,-4.88,active

8 of these entries, set out differently:
Serpinc1 #2, siRNA vendor or control pool ambion single siRNA
- p65 translocation z-score, replicate mean: 1.47
- p65 translocation z-score, replicate 1: 1.97
- p65 translocation z-score, replicate 2: 0.966
- gene median z-score, per vendor: 1.21
- call: inactive

Serpinc1 #3, siRNA vendor or control pool ambion single siRNA
- p65 translocation z-score, replicate mean: -1.16
- p65 translocation z-score, replicate 1: -2.11
- p65 translocation z-score, replicate 2: -0.202
- gene median z-score, per vendor: 1.21
- call: inactive

Serpinc1 #4, siRNA vendor or control pool qiagen single siRNA
- p65 translocation z-score, replicate mean: 3.31
- p65 translocation z-score, replicate 1: 1.11
- p65 translocation z-score, replicate 2: 5.52
- gene median z-score, per vendor: 1.12
- call: active

Serpinc1 #5, siRNA vendor or control pool qiagen single siRNA
- p65 translocation z-score, replicate mean: 0.552
- p65 translocation z-score, replicate 1: -0.0355
- p65 translocation z-score, replicate 2: 1.14
- gene median z-score, per vendor: 1.12
- call: inactive

Serpinc1 #6, siRNA vendor or control pool qiagen single siRNA
- p65 translocation z-score, replicate mean: 1.15
- p65 translocation z-score, replicate 1: 0.118
- p65 translocation z-score, replicate 2: 2.18
- gene median z-score, per vendor: 1.12
- call: inactive

Tnfsf14 #1, siRNA vendor or control pool ambion single siRNA
- p65 translocation z-score, replicate mean: 2.48
- p65 translocation z-score, replicate 1: 4.52
- p65 translocation z-score, replicate 2: 0.443
- gene median z-score, per vendor: 0.555
- call: active

Tnfsf14 #2, siRNA vendor or control pool ambion single siRNA
- p65 translocation z-score, replicate mean: 0.793
- p65 translocation z-score, replicate 1: 0.919
- p65 translocation z-score, replicate 2: 0.668
- gene median z-score, per vendor: 0.555
- call: inactive

Tnfsf14 #3, siRNA vendor or control pool ambion single siRNA
- p65 translocation z-score, replicate mean: -3.2
- p65 translocation z-score, replicate 1: -3.1
- p65 translocation z-score, replicate 2: -3.29
- gene median z-score, per vendor: 0.555
- call: active
